Source: publication PMC6554275

T1: wild-type human myc-tagged SFRP3 (human) (UniProt Q92765)
T1 sequence: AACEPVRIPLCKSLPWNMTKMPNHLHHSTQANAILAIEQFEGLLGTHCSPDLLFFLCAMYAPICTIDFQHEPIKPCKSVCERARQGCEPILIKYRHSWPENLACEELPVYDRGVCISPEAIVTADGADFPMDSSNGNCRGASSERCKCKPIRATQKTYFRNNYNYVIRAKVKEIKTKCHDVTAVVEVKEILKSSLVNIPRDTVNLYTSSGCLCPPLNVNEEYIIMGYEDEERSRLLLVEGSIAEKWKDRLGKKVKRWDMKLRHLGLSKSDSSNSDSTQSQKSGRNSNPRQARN

B1: Active Wnt2-V5 (ligand, UniProt P09544 26-360)
chain: SWWYMRATGGSSRVMCDNVPGLVSSQRQLCHRHPDVMRAISQGVAEWTAECQHQFRQHRWNCNTLDRDHSLFGRVLLRSSRESAFVYAISSAGVVFAITRACSQGEVKSCSCDPKKMGSAKDSKGIFDWGGCSDNIDYGIKFARAFVDAKERKGKDARALMNLHNNRAGRKAVKRFLKQECKCHGVSGSCTLRTCWLAMADFRKTGDYLWRKYNGAIQVVMNQDGTGFTVANERFKKPTKNDLVYFENSPDYCIRDREAGSLGTAGRVCNLTSRGMDSCEVMCCGRGYDTSHVTRMTKCGCKFHWCCAVRCQDCLEALDVHTCKAPKNADWTTAT
B2: Active Wnt5a-V5 (ligand, UniProt P41221 62-380)
chain: IIGAQPLCSQLAGLSQGQKKLCHLYQDHMQYIGEGAKTGIKECQYQFRHRRWNCSTVDNTSVFGRVMQIGSRETAFTYAVSAAGVVNAMSRACREGELSTCGCSRAARPKDLPRDWLWGGCGDNIDYGYRFAKEFVDARERERIHAKGSYESARILMNLHNNEAGRRTVYNLADVACKCHGVSGSCSLKTCWLQLADFRKVGDALKEKYDSAAAMRLNSRGKLVQVNSRFNSPTTQDLVYIDPSPDYCVRNESTGSLGTQGRLCNKTSEGMDGCELMCCGRGYDQFKTVQTERCHCKFHWCCYVKCKKCTEIVDQFVCK

What was measured:
[1] = target: T1, wild-type human myc-tagged SFRP3 (human); test: co-IP; HEK293 cells transiently co-transfected with SFRP3-myc and V5/HA-tagged Wnt; lysis in 150 mM NaCl, 50 mM Tris pH 8, 1% NP40; anti-myc conjugated beads 2 h at 4 °C; blots with anti-myc, anti-V5, anti-HA
[2] = target: GST-tagged NRT domain of SFRP3 (not stated (human or mouse cDNA cloned)); test: pull-down; GST-tagged forms of SFRP3; HEK293 cells transfected with empty, Wnt2-V5, Wnt5a-V5 or Wnt7b-HA constructs; blots with anti-V5 and anti-HA

Molecule	binding [1]	binding [2]
Wnt7b-HA (ligand)	binds	–
B1	–	binds
B2	–	binds

These are yes or no findings as the source states them, for the method shown. In cells and extracts the contact can be indirect. Binding can be weak; no strength is given. Where a sequence is shown, tags or fusion partners need not be part of it.
